Source: article PMC9911396
No constants are given. Whether binding was seen depends on the method and setting. Binding seen in cells or lysates may run through a third protein. Some results given as binding are weak or reduced against the parent protein; the word gives no strength.

Protein sequences, listed by entry. Tags and fused reporters are not part of them.
UniProt Q13263: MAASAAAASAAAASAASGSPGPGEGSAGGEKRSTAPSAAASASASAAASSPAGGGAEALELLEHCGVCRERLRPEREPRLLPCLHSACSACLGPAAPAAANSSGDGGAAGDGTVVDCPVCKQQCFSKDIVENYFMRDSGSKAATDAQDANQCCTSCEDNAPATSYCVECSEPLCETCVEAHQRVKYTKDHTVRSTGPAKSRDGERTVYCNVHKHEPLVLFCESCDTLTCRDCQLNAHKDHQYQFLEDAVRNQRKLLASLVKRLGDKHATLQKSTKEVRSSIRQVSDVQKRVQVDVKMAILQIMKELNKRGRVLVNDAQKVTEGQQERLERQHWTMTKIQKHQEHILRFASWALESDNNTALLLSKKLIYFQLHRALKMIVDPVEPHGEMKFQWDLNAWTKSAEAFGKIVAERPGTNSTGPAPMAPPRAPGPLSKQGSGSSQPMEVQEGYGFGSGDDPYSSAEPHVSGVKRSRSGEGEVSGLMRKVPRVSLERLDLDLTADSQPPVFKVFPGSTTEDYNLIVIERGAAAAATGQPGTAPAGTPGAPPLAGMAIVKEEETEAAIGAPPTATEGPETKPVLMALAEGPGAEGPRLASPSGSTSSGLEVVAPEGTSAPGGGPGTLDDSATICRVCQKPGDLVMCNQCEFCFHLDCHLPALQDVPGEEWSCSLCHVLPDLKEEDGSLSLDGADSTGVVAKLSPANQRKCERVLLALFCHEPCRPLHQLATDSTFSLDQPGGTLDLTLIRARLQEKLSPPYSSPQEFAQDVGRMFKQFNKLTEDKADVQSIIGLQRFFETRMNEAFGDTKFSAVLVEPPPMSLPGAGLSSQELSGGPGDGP
UniProt Q13547: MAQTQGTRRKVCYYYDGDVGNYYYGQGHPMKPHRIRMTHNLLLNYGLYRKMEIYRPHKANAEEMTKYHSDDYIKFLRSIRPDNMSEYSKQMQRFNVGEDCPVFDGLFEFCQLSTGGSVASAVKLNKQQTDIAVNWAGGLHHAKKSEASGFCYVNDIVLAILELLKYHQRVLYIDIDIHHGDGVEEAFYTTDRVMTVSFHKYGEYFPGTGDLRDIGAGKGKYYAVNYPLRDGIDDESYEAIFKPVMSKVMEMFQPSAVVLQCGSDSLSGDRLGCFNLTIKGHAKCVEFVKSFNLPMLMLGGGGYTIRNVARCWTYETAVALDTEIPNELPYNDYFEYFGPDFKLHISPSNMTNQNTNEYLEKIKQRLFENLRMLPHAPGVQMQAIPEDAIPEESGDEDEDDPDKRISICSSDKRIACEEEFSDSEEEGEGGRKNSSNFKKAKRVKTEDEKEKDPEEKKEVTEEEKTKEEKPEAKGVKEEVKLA

Molecular target: T1, ZBTB12, BTB domain-containing zinc finger protein (not stated (human or mouse cDNA cloned)) (UniProt Q9Y330)
T1 sequence: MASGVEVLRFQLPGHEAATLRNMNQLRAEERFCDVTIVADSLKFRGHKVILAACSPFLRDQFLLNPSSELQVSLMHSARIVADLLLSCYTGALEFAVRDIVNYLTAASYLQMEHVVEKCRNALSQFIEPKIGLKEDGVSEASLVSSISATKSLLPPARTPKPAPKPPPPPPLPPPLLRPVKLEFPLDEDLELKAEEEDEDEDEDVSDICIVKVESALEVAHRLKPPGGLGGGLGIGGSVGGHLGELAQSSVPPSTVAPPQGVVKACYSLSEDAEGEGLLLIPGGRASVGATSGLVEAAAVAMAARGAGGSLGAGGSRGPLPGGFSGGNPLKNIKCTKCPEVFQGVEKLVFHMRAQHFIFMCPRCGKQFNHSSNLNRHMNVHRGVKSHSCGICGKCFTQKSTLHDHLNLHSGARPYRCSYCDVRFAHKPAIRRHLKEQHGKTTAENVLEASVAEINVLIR
Assay: co-IP; cell lysates in IP-lysis buffer (50 mM Tris-HCl pH7.5, 150 mM NaCl, 0.5% TX-100, 1 mM EDTA, protease inhibitors), 4 °C; immunoprecipitation with anti-HA magnetic beads; Western blot; cell line not stated

Row | binding | Substance
1 | no binding | KAP1 (from UniProt Q13263 1-835)
2 | binds | HDAC1 (from UniProt Q13547 1-482)
